## Library screening results

Measurements from “University of Dundee, Small-Polar-MMV Screening Library” (2021), ChEMBL document CHEMBL3988442.

Results are given as percent effect.
The controls that fix the scale are not given in the record; negative values are as filed.
This is an unselected part of the compounds tested.

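Whole-cell assay for inhibitors of Mycobacterium tuberculosis growth, labelled Cornell in the record; the read-out is not stated. The concentration is filed as 10 mM, unlikely as a test dose, so the dose is not known. Higher means stronger inhibition (inferred from two other growth screens of the library). Of about 53,000 compounds tested this way, about 900 (1.7%) reached 50% or more in at least one test.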

| # | compound | effect |
|---|---|---|
| 1 | `Cc1ncn(CCNC(=O)Nc2ccc(OC(F)(F)F)cc2)c(=O)c1C` | 10.6% |
| 2 | `O=C(O)c1cc(N2C[C@H](NC(=O)C3CCOCC3)[C@@H](C3CC3)C2)ccn1` | 32.77% |
| 3 | `O=C(Nc1ccc(F)cc1)N1CCN(Cc2noc(C3CC3)n2)CC1` | -7.233% |
| 4 | `O=C(c1cnccn1)N1CCN(Cc2csc(-c3ccccc3)n2)CC1` | -7.327% |
| 5 | `Cc1cccc(CS(=O)(=O)NCc2nn(C)c3c2COCC3)c1` | 30.64% |
| 6 | `CC(C)N1CCC(c2cnc(-c3cncnc3)cn2)CC1` | -19.95% |
| 7 | `COc1ccccc1CC(C)(C)NC(=O)CN(C)C(C)C` | -1.779% |
| 8 | `O=C(CCc1ccco1)NS(=O)(=O)N1CCOc2ccccc21` | 43.61% |
| 9 | `CSCCN(C)C(=O)C1(c2ccc(F)cc2F)CCOCC1` | 24.64% |
| 10 | `CCOCC1CN(Cc2cccc(C#N)c2)Cc2nccn2C1.O=C(O)C(F)(F)F` (stereo unspecified) | 29.87% |
| 11 | `CCn1c(N)nc2cc(C(=O)NCCNc3ncccc3C)cnc21` | -6.714% |
| 12 | `CCc1ncnc(N2CCOCC2C(N)=O)c1F` (stereo unspecified) | -13.34% |
| 13 | `NC(=O)C1CCN(Cc2ccc(S(=O)(=O)N3CCCC3)o2)CC1` | 7.093% |
| 14 | `Cl.NCC1CCCCN1C(=O)Cc1ccc(F)c(F)c1` (stereo unspecified) | 3.331% |
| 15 | `CCCN(CCC)S(=O)(=O)c1cc(NC(C)=O)ccc1C` | -8.535% |
| 16 | `CCn1cnnc1C1CCN(C(=O)c2ccccc2F)CC1` | -11.02% |
| 17 | `O=C(CNC(=O)c1ccccc1I)NCc1ccccc1F` | -10.24% |
| 18 | `COc1ccc(C(NCc2cccc(C#N)c2)C(C)C)cc1` (stereo unspecified) | -5.729% |
| 19 | `O=C(O)C(F)(F)F.O=C(O)C(F)(F)F.O=C(O)C(F)(F)F.[H][C@@]12CN(Cc3ccco3)CCC[C@]1(C(=O)OCC)CN(CCN(C)C)C2` | 18.46% |
| 20 | `Cc1noc(C)c1CN1CCC(N(C)Cc2noc(C(C)C)n2)C1` (stereo unspecified) | 7.99% |
| 21 | `CCC(C)Oc1cc(C(=O)Nc2nc(C)ns2)ccn1` (stereo unspecified) | 38.9% |
| 22 | `Cc1ccc(S(=O)(=O)NC(=O)CCOCc2ccccc2)s1` | -55.06% |
| 23 | `O=C(O)C(F)(F)F.[H][C@]12CCC[C@@]1(COCc1ccccn1)CN(C(=O)c1ccc(F)cc1)C2` | -5.751% |
| 24 | `O=C(NCCn1ccnc1)N1CCCC1c1ccsc1` (stereo unspecified) | 12.02% |
| 25 | `O=C(CCNc1ncccn1)Nc1ccc(Cn2cncn2)cc1` | 33.35% |
| 26 | `Cc1ccc(CN2CCc3onc(C(=O)N4CCCC4)c3C2)o1.O=C(O)C(F)(F)F` | 6.615% |
| 27 | `[H][C@@]12CCCCCN(C(C)=O)[C@@]1([H])[C@H](c1cccc(F)c1)CN2C(=O)COC` | -30.92% |
| 28 | `COc1ccc(OC2CCN(C(=O)c3cnc(C)s3)CC2)cc1` | 15.16% |
| 29 | `O=C(C1CCOCC1)N1CCC2(CCNCC2)C1` | -6.539% |
| 30 | `O=C(NC[C@H]1OC[C@@H](NC2COC2)[C@@H]1O)Nc1ccccc1` | -16.3% |
| 31 | `CN1CCCN(C(=O)NCCNc2ncccc2C#N)CC1` | -4.289% |
| 32 | `CC(NC(=O)CCOc1ccccc1Cl)c1nnc2n1CCC2` (stereo unspecified) | -2.531% |
| 33 | `Cc1cnccc1CN1C[C@@H](O)[C@H](Oc2cccc(F)c2)C1` | 17.87% |
| 34 | `Cc1cc(C)c2ncn(CCC(C)O)c(=O)c2c1` (stereo unspecified) | 1.891% |
| 35 | `Cc1noc2nc(C3CCN(Cc4ccncc4)CC3)cc(C(F)F)c12` | -0.9434% |
| 36 | `Cc1nc(CN2CCCC(NCc3ccsc3)C2)no1` (stereo unspecified) | -19.77% |
| 37 | `[H][C@@]12CCC(=O)N(CCCOC)[C@]1([H])CCN(c1cnc3ccccc3n1)C2` | -9.185% |
| 38 | `CCOCc1nc2c(c(N3CCN4CCCC4C3)n1)CCNCC2` (stereo unspecified) | 11.46% |
| 39 | `CN(C)C(=O)C1CCCN1CCCNC(=O)c1ccccc1Cl` (stereo unspecified) | -41.24% |
| 40 | `CC(=O)Nc1ccc(C(=O)N(C)Cc2ccc(F)cc2F)s1` | 7.118% |
| 41 | `CNC(=O)C1CCN(c2ncc3c(n2)CCN3c2ccccc2)C1` (stereo unspecified) | 1.927% |
| 42 | `COCCCn1cnnc1CNC(=O)c1[nH]c2c(C)cc(C)cc2c1C` | 30.09% |
| 43 | `COCCN1CCC2(CC1)CC(NC(=O)C1CC1)c1ccccc1O2.O=C(O)C(F)(F)F` (stereo unspecified) | 31.23% |
| 44 | `O=C(O)C(F)(F)F.[H][C@]12CCN(Cc3ccco3)C[C@@]1([H])OCCN(C(=O)c1ccsc1)C2` | 4.641% |
| 45 | `COc1cc(C2(C(=O)N3CCCC(n4cncn4)C3)CC2)ccc1C` (stereo unspecified) | 9.425% |
| 46 | `N[C@H]1CN(S(=O)(=O)Cc2ccccc2)C[C@@H]1C1CC1` | -22.02% |
| 47 | `CCCN1CCC(N2CCN(c3cc(C)nc(C)c3)CC2)CC1` | 0.2428% |
| 48 | `Cc1ccc(CN(C)C(=O)CNC(C)(C)c2noc(C(C)(C)C)n2)o1` | 10.27% |

For reference, 6 entries once more:

* CCc1ncnc(N2CCOCC2C(N)=O)c1F (stereo unspecified) : -13.34%
* O=C(NCCn1ccnc1)N1CCCC1c1ccsc1 (stereo unspecified) : 12.02%
* Cc1nc(CN2CCCC(NCc3ccsc3)C2)no1 (stereo unspecified) : -19.77%
* COc1ccccc1CC(C)(C)NC(=O)CN(C)C(C)C : -1.779%
* Cc1ncn(CCNC(=O)Nc2ccc(OC(F)(F)F)cc2)c(=O)c1C : 10.6%
* CCC(C)Oc1cc(C(=O)Nc2nc(C)ns2)ccn1 (stereo unspecified) : 38.9%